Assay results reported in PubChem BioAssay AID504467 (National Center for Advancing Translational Sciences (NCATS), 2011).
The campaign covered roughly 330,000 compounds. About 7,700 (2.3%) were called active. Inconclusive results, whose numbers are uncertain, are shown with a selection of clear calls. The call rests on the fitted dose curve; in most records, active means well fitted inhibition curve with a large enough effect; inconclusive means small, poorly fitted or top-dose-only effect, or effect the other way; inactive means flat fitted curve, though single readings scatter. Potencies beside an inconclusive call are fits to weak or partial responses and may not hold up.

Experiment: qHTS screen for small molecules that inhibit ELG1-dependent DNA repair in human embryonic kidney (HEK293T) cells expressing luciferase-tagged ELG1; further: nearly all actives have a fitted effect of over 55% in size
Conditions: HEK293T ELG1-luciferase reporter, luminescence, 16 h, DNA damage induced by 5-fluorouridine; activity change, negative = inhibition: at 46.1 µM (top of the series)
In short: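 Cells (2,000 per well) received 5-fluorouridine plus test compound or DMSO and were incubated 16 hr at 37 °C, 5% CO2. Luciferase activity was read by luminescence 30 min after ONE-Glo addition; signal suppression marked inhibition of damage-induced ELG1 function.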
On the % scale 0 is the no-effect control and ±100 the full control effect; potency means the concentration at half of the fitted maximal effect.

Row | Compound | Potency | activity change, negative = inhibition
1 | CCN(C(=O)c1cnc(NC(C)C)cc1C(F)(F)F)c1ccc(Cl)cc1 | active: 18.3 µM | 
2 | CCOc1ccc2nc(COC(=O)c3ccncc3)c(C(=O)c3ccccc3)[n+]([O-])c2c1 | inconclusive: 20.6 µM [activator, partial curve] | 
3 | Cc1cccc(C(=O)Nc2nnc(-c3cccnc3)o2)c1 |  | inactive: -23%
4 | CC1(C)Cc2c(C#N)c(SCCO)nc(N3CCOCC3)c2CO1 | inconclusive: 16.4 µM [inhibitor, single point] | 
5 | N/C(=N\OC(=O)/C=C/c1ccccc1)c1ccncc1 | inconclusive: 3.26 µM [activator, partial curve] | 
6 | CCc1nnc(NS(=O)(=O)c2ccc(NC(=O)c3ccccc3OC)cc2)s1 |  | inactive: 16.2%
7 | Cc1ccc(-n2c(-c3ccco3)nc3nc4ccccc4nc32)cc1F | inconclusive: 0.231 µM [activator, single point] | 
8 | Cc1cc2nc(-c3ccc[nH]c3=O)n(Cc3ccccc3F)c2cc1C |  | inactive: 13.8%
9 | Cc1cc(NS(=O)(=O)c2ccc(NC(=O)c3ccc([N+](=O)[O-])c(Cl)c3)cc2)no1 | inconclusive: 14.6 µM [activator, partial curve, poor fit] | 
10 | COC(=O)Cc1ccc(NC(C)=O)cc1 |  | inactive: 19%
11 | Cc1ccc(-c2nnc(Nc3ccc(C(N)=O)cc3)c3ccccc23)cc1S(=O)(=O)NCC1CCCO1 (configuration not stated) | inconclusive: 25.9 µM [inhibitor, partial curve] | 
12 | Cc1ccc(S(=O)(=O)N(CC(=O)Nc2cccnc2)c2cccc([N+](=O)[O-])c2)cc1 | inconclusive: 29.1 µM [inhibitor, single point] | 
13 | COc1cc(CC(=O)Nc2cc(S(C)(=O)=O)ccc2Cl)cc(OC)c1OC | inconclusive: 23.1 µM [inhibitor, single point] | 
14 | CC1CCc2nc(NC(=O)Nc3ccc4c(c3)OCO4)sc2C1 (configuration not stated) | inconclusive: 2.59 µM [activator, full curve] | 
15 | Nc1nc(Cl)nc2ccc(Br)cc12 | inconclusive: 16.4 µM [activator, single point] | 
16 | Cn1ccs/c1=N\C(=O)Nc1cccc(Cl)c1 | inconclusive: 7.3 µM [activator, partial curve] | 
17 | Cc1ccc(S(=O)(=O)NCC(=O)N/N=C/c2ccc(Cl)cc2)cc1 |  | inactive: 10.7%
18 | CC(C)Oc1ccc(S(=O)(=O)N2CCOCC2)cc1NC(=O)Cc1ccsc1 | inconclusive: 20.6 µM [inhibitor, partial curve, poor fit] | 
19 | COc1ccc(-c2nnc(NC(=O)CS(=O)(=O)c3ccc(F)cc3)o2)cc1 |  | inactive: 16.2%
20 | COc1ccccc1-c1sc2cc3c(cc2c1C#CC1(O)CCCCC1)OCO3 | inconclusive: 32.6 µM [inhibitor, single point] | 
21 | CCN(CC)S(=O)(=O)c1ccc(NC(=O)CNC2CCCCC2)cc1 |  | inactive: 10.7%
22 | CCc1ccccc1Nc1nc(N)nc(COC(=O)c2cccn2C)n1 | inconclusive: 20.6 µM [activator, partial curve] | 
23 | CCC(C(=O)Nc1cc(F)ccc1F)n1nc(C)c2c(C)n(-c3ccc(C)cc3)nc2c1=O (configuration not stated) | inconclusive: 7.3 µM [inhibitor, partial curve] | 

Row | Compound | Potency | activity change, negative = inhibition
24 | Cc1cc(C)nc(N2CCC(C(=O)Nc3cccc(C(F)(F)F)c3)CC2)n1 | inconclusive: 23.1 µM [inhibitor, partial curve, poor fit] | 
25 | CCN(CC)C(=O)CSc1nnc(-c2cccc(OC)c2)o1 | inconclusive: 14.6 µM [activator, partial curve] | 
26 | CCOc1ccccc1/C=N\Nc1cnn(Cc2ccccc2)c(=O)c1Cl | inconclusive: 32.6 µM [inhibitor, partial curve, poor fit] | 
27 | CCOC(=O)c1ccc(NC(=O)C2=C(C)Nc3nc(CCCO)nn3C2c2ccc(OC)cc2)cc1 (configuration not stated) | inconclusive: 29.1 µM [activator, single point] | 
28 | COc1cc(NC(=O)COC(=O)Cc2ccsc2)cc(OC)c1 | inconclusive: 35.5 µM [activator, single point] | 
29 | Cc1ccc(-c2nc(NCc3ccco3)n(S(C)(=O)=O)n2)cc1 | inconclusive: 2.31 µM [activator, single point] | 
30 | Cc1ccc(NC2=CC(=O)OC(C)C2)cc1 (configuration not stated) |  | inactive: 0.893%
31 | O=C(NNC(=O)c1ccccc1[N+](=O)[O-])Nc1ccc(Cl)cc1 | inconclusive: 10.3 µM [activator, partial curve, poor fit] | 
32 | Cc1sc(NC(=O)CN(Cc2ccc(F)cc2)C(=O)C(C)C)c(C(N)=O)c1C | inconclusive: 11.2 µM [inhibitor, partial curve, poor fit] | 
33 | CC(=O)c1c(C(C)=O)c(C)n(-c2nc(-c3ccc(Br)cc3)c(C)s2)c1C | inconclusive: 18.4 µM [inhibitor, single point] | 
34 | COCCC(=O)N1CCC(Oc2ccc(C(=O)NCCc3cnn(C)c3)cc2)CC1 | inconclusive: 13 µM [activator, partial curve] | 
35 | Cn1ccsc1=NC(=O)c1cccc(OC(F)F)c1 | inconclusive: 9.2 µM [activator, partial curve] | 
36 | COCCn1c(SCC(=O)Nc2cccc(C(=O)OC)c2)nc2ccccc2c1=O | inconclusive: 29.1 µM [inhibitor, single point] | 
37 | Cc1ccn2c(=O)cc(C)nc2c1 |  | inactive: 0.293%
38 | C=CC[C@@H](CC(=O)N[C@@H](CO)Cc1ccccc1)C(=O)N[C@H](COC(=O)[C@@H](CC=C)Cc1ccc(F)cc1)C(C)(C)C | inconclusive: 29.1 µM [inhibitor, single point] | 
39 | COc1cc(C(=O)NCCc2cc3c(OC)ccc(OC)c3[nH]c2=O)cc(OC)c1OC | inconclusive: 5.8 µM [inhibitor, partial curve] | 
40 | Cc1ccc(CNC(=O)Cc2ccc(-n3cccc3)cc2)cc1 | inconclusive: 2.06 µM [inhibitor, partial curve, poor fit] | 
41 | Cc1cc(C)nc(N/N=C/c2ccc3c(c2)OCCO3)n1 | inconclusive: 20.6 µM [activator, partial curve] | 
42 | O=C(CC(=O)NC1CCCCC1)N/N=C/c1ccccc1Cl | inconclusive: 16.4 µM [activator, single point] | 
43 | O=C(COC(=O)c1ccccc1-n1cnnn1)c1ccc(F)cc1 | inconclusive: 3.66 µM [activator, full curve] | 
44 | Oc1ccc(-c2nccc(-c3ccc(Cl)cc3Cl)n2)cc1 |  | inactive: -4.23%
45 | CCC(=O)Nc1ccc(C(=O)CN2C(=O)NC3(CCOc4ccccc43)C2=O)cc1 (configuration not stated) | inconclusive: 23.1 µM [inhibitor, single point] | 
46 | O=C(C[n+]1ccccc1)N/N=C/c1ccccc1C(F)(F)F |  | inactive: 9.49%

Row | Compound | Potency | activity change, negative = inhibition
47 | N=C1C(c2nc3ccccc3s2)=C(O)CN1NC(=O)c1ccc([N+](=O)[O-])cc1 | inconclusive: 29.1 µM [inhibitor, single point] | 
48 | CCn1c(-c2cc(-c3ccc(C)c(C)c3)nc3ccccc23)n[nH]c1=S | inconclusive: 20.6 µM [activator, partial curve] | 
49 | COc1ccc(NC(=O)/C(C#N)=C\c2ccc(-c3cc(C(=O)O)ccc3C)o2)cc1 |  | inactive: -0.592%
50 | CCn1c(C)nc2cc(C(=O)N/N=C(\C)c3ccccc3O)ccc21 | inconclusive: 2.31 µM [activator, partial curve] | 
51 | Cc1ccc(C(=O)N2c3ccc(F)cc3CCC2C)o1 (configuration not stated) | inconclusive: 9.2 µM [activator, partial curve, poor fit] | 
52 | COc1ccc(OCc2cc(C(=O)NC(C)Cn3cncn3)no2)c(Cl)c1 (configuration not stated) | inconclusive: 18.3 µM [activator, partial curve] | 
53 | COc1ccc(CCC(=O)Nc2cc(S(=O)(=O)N3CCCCC3)ccc2N(C)C)cc1 | inconclusive: 20.6 µM [inhibitor, single point] | 
54 | CCN1CCN(c2cc(C)c3cc(NC(=O)c4ccncc4)ccc3n2)CC1 | inconclusive: 13 µM [inhibitor, partial curve, poor fit] | 
55 | COC(=O)c1ccccc1NC(=O)COC(=O)[C@H](C)NC(N)=O |  | inactive: -5.61%
56 | Cc1ccc(C(=O)/C=C\Nc2ccc(C)c(C)c2)cc1 | inconclusive: 9.2 µM [activator, partial curve] | 
57 | O=C(CSc1nc2ccccc2[nH]1)N/N=C/C=C/c1ccccc1[N+](=O)[O-] | inconclusive: 23.1 µM [inhibitor, single point] | 
58 | NNc1nc2sc3c(c2c(=O)n1C1CCCCC1)CCN(Cc1ccccc1)C3 | inconclusive: 29.1 µM [inhibitor, single point] | 
59 | COc1ccccc1NC(=O)Cn1cc(C(=O)c2ccco2)c2ccccc21 | inconclusive: 20.6 µM [inhibitor, single point] | 
60 | CCOC(=O)C1CCN(C(=O)Cn2cccc2C(=O)c2ccccc2)CC1 |  | inactive: 0%
61 | Cc1nnc(SCC(=O)NCc2ccc3c(c2)OCO3)s1 | inconclusive: 0.103 µM [activator, full curve, poor fit] | 
62 | COc1cc(Cl)c(C)cc1NC(=O)CC1SC(N2CCOCC2)=NC1=O (configuration not stated) |  | inactive: -1.1%
63 | CC(Oc1ccc2c(-c3ccccc3)cc(=O)oc2c1)C(=O)NCC(O)c1ccccc1 (configuration not stated) | inconclusive: 10.3 µM [inhibitor, single point] | 
64 | O=c1c2ccccc2nc(/C=C/c2cccnc2)n1CCc1ccccc1 | inconclusive: 20.6 µM [inhibitor, partial curve] | 
65 | COc1ccccc1-c1noc(-c2cccs2)n1 | inconclusive: 3.55 µM [activator, full curve] | 
66 | CNC(=S)N/N=C/c1ccccc1OCC(=O)O |  | inactive: 0%
67 | Cc1nn(-c2ccccc2)c(C)c1/C=N/n1cnnc1 | inconclusive: 20.6 µM [activator, partial curve, poor fit] | 

Entries of single compounds as entered above:
Cc1ccc(C(=O)/C=C\Nc2ccc(C)c(C)c2)cc1 as listed: Potency: inconclusive: 9.2 µM [activator, partial curve]
COc1ccccc1-c1noc(-c2cccs2)n1 as listed: Potency: inconclusive: 3.55 µM [activator, full curve]
CNC(=S)N/N=C/c1ccccc1OCC(=O)O as listed: activity change, negative = inhibition: inactive: 0%
